The text below walks through data of PubChem BioAssay AID662 (National Center for Advancing Translational Sciences (NCATS), 2007).

The other results are listed elsewhere or left out. Further columns of the screen follow, without active or inactive calls. Compounds called inactive in the main read-out are mostly missing here. Words in brackets tell the shape of the fitted curve; partial curves, single points and poor fits give uncertain potencies.

This assay in a line: Cell signaling CRE-BLA (Fsk stim). The conditions noted are these: CHO CRE-bla reporter (cAMP response element driving beta-lactamase), forskolin EC10, beta-lactamase ratio; measured here: 460 nm blue channel. The method, boiled down:
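Modulation of forskolin signalling: compounds in titration series added with EC10 NKH 477 to CHO cells carrying a CRE-driven beta-lactamase reporter, 3 h, 37C. CCF4 FRET ratio (460/530 nm, ex 405 nm) gives %activity and AC50.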
Consider `C/C=C/Cn1c(SC)nc2c1c(=O)[nH]c(=O)n2C`, for which the AC50 (in general, the concentration giving half of the maximal activity seen) is 10 µM [rising, partial curve].
In the case of `O=C(c1ccco1)N1CCN(/C(=N/S(=O)(=O)c2cccs2)c2ccccc2Cl)CC1`, the AC50 is 3.98 µM [falling, partial curve].
In the case of `O=C(O)CCCC(=O)Nc1cccc2cccnc12` it was 1 µM [falling, full curve, poor fit].
The value for `CC(=O)Nc1c(C(=O)c2ccccc2)oc2ccccc12` was 12.6 µM [rising, single point].
Consider `CCOCCOC(=O)C1=C(C)NC2=C(C(=O)CC(c3cccs3)C2)C1c1ccsc1` (centres undefined), for which the AC50 is 10 µM [rising, partial curve].
The value for `COc1cccc(-c2cncnc2-n2ccnc2)c1` was 7.94 µM [rising, partial curve].
`CC(=O)Nc1ccc2nc(C3CCCCC3)[nH]c2c1`: the half-maximal activity concentration (AC50) was 0.398 µM [falling, single point].
As for `CCc1ccc(-c2nc(CSCC(=O)N3CCN(c4ccccn4)CC3)c(C)o2)cc1`, the concentration at half-maximal activity (AC50) is 6.31 µM [falling, partial curve, poor fit].
On to `Cc1ccc(SCc2[nH]nc3c2C(c2ccco2)C(C#N)=C(N)O3)cc1` (centres undefined), for which the AC50 was 12.6 µM [falling, single point].
Consider `O=c1oc2c3c4c(cc2c2c1CCC2)OCCN4CCC3`, for which the half-maximal activity concentration (AC50) is 10 µM [rising, partial curve].
The value for `N#Cc1nc(Cc2cccc3ccccc23)oc1NCC1CCCO1` (centres undefined) was 12.6 µM [rising, single point].
Consider `COc1ccccc1CNc1ncnc2ccc(-c3c(C)noc3C)cc12`, for which the AC50 is 5.01 µM [rising, partial curve].
As for `CCOc1ccccc1C1NC(=O)NC(C)=C1C(=O)OC1CCCCC1` (centres undefined), the AC50 was 12.6 µM [rising, single point].
For `c1ccc(Cn2nnnc2C(c2ccncc2)N2CCOCC2)cc1` (centres undefined), the AC50 is 3.98 µM [rising, single point].
In the case of `Cn1nc(-c2ccc(N3CCOCC3)c(NC(=O)c3ccccc3)c2)c2ccccc2c1=O` it was 5.01 µM [rising, partial curve].
In the case of `COC(=O)c1cccnc1-n1c(=O)c2cccnc2n(Cc2ccc(Cl)cc2)c1=O` it was 0.01 µM [falling, full curve, poor fit]; in that of `COc1cc2c(cc1OC)CN(C(=O)c1cc(S(=O)(=O)N3CCOCC3)ccc1Cl)CC2`, 10 µM [falling, single point]; in that of `N#CC1=C(SCC(=O)Nc2cccc3cccnc23)NC(=O)C(C#N)C12CCCCC2` (centres undefined), 12.6 µM [falling, single point].
For the compound `NC(=O)NC(=O)CSc1cccc(C(F)(F)F)c1`, the AC50 was 3.98 µM [falling, partial curve].
The value for `O=C(O)C1CCN(S(=O)(=O)N2CCOCC2)CC1` was 25.1 µM [rising, single point].
The value for `COc1ccc2nc(Nc3nc(C)c(C(C)=O)s3)sc2c1` was 10 µM [rising, partial curve]; that for `CS(=O)(=O)c1nc(-c2ccco2)cc(C(F)(F)F)n1` was 0.501 µM [falling, full curve]; that for `CC(C)Cc1nc2oc3c(=O)[nH]cnc3c2c2c1CCC2` was 5.01 µM [falling, full curve].
For the compound `CCOC(=O)c1cnc(-n2nc(C)cc2C)nc1NCCc1ccccc1`, the concentration at half-maximal activity (AC50) was 3.16 µM [falling, partial curve].
With `O=C(Nc1ccc2c(c1)OCO2)c1c(Cl)nc2sccn12`, the half-maximal activity concentration (AC50) is 10 µM [rising, single point].
Turning to `CC1(C)C(c2ccccc2)=NC(c2ccc(F)cc2)N1O` (centres undefined), the AC50 is 0.158 µM [falling, full curve].
In the case of `Cc1nn(-c2nc3ccccc3[nH]2)c(N)c1-c1ccccc1` it was 10 µM [falling, partial curve]; in that of `CCc1cc(=O)oc2cc(C)cc(OCc3nn[nH]n3)c12`, 25.1 µM [rising, single point]; in that of `CC(=O)NC(=O)NC1OC(=O)C(Cl)=C1Cl` (centres undefined), 25.1 µM [falling, single point].
The value for `Nc1nnnn1/N=C/c1ccccc1OCc1ccc(Cl)cc1Cl` was 3.98 µM [rising, full curve].
The value for `c1cc(Nc2ncnc3sccc23)cc(-c2nnc3n2CCCCC3)c1` was 6.31 µM [rising, partial curve]; that for `O=C(CN1CCCN(S(=O)(=O)c2ccc(F)cc2)CC1)Nc1ccccc1Br` was 12.6 µM [rising, single point].
`CCc1nc(C)cn1S(=O)(=O)c1cc(Br)c(C)cc1OC`: the AC50 was 10 µM [rising, partial curve].
Regarding `CC(=O)Nc1ccc(S(=O)(=O)N2CCN(c3cc(C)ccc3C)CC2)cc1`, the AC50 was 31.6 µM [falling, single point].
In the case of `COc1ccc(NC(=O)CNc2cccc(C#N)c2)cc1Cl` it was 3.98 µM [falling, single point]; in that of `C(=C\c1ccccc1)/CSc1nnc(-c2cnccn2)n1Cc1ccco1`, 0.00398 µM [falling, full curve, poor fit].
For the compound `CC(C)N(C(=O)CSc1nc2c([nH]1)c(=O)n(C)c(=O)n2C)c1ccccc1`, the AC50 is 10 µM [rising, partial curve].
As to `Oc1ccc(C=Nc2ccc(N3CCOCC3)cc2)c(O)c1`, the AC50 was 25.1 µM [falling, single point].
As to `COC(=O)c1ccc(CSc2nc3c(cnn3-c3ccccc3)c(=O)[nH]2)o1`, the AC50 is 1 µM [rising, full curve].
The value for `COC(=O)c1c(NC(=O)COC(=O)Cn2cnc3ccccc32)sc(C)c1C` was 25.1 µM [rising, single point]; that for `Cc1[nH]n(-c2ccccc2)c(=O)c1S(=O)(=O)c1ccccc1` was 10 µM [falling, partial curve]; that for `CCOC(=O)c1c(C)[nH]c(C)c1C(=O)CSc1nnc(-c2cc(OC)c(OC)c(OC)c2)o1` was 0.2 µM [rising, full curve, poor fit].
On to `C=CCNC(=O)NC(=O)COC(=O)CCCSc1nc2ccccc2[nH]1`, for which the AC50 is 3.98 µM [falling, single point].
In the case of `COc1ccc(OC)c(-c2cc(C(=O)NCCCn3ccnc3)no2)c1` it was 12.6 µM [rising, single point].
